# Earlier results, collected in patent US20200390783A1, “INHIBITORS OF EGFR AND METHODS OF USE THEREOF” (DANA-FARBER CANCER INSTITUTE, INC., priority 2018, published 2020).
# At least one compound was matched to its structure with a doubt left.
# Tested on: NSCLC resistant to gefitinib or erlotinib
# Conditions: patients with NSCLC resistant to gefitinib or erlotinib; cited from earlier work
compound,measurement,value
CN(C)C/C=C/C(=O)Nc1cc2c(Nc3ccc(F)c(Cl)c3)ncnc2cc1O[C@H]1CCOC1 [Afatinib],RR,< 10%
